Data taken from patent US20230167453.

Assays:
[1] = test system: VEGF (negative control protein); assay: MST; details: 2'-F pyrimidines; weak binding indicated, not fittable; purified recombinant protein; protein details: labeled, R&D Systems; variant of S5
[2] = target: T1, CD5L (CD5 antigen-like) (Homo sapiens) (UniProt O43866); assay: activity in cells; details: 2'-F pyrimidines; reduces pAKT, tube formation and migration in bevacizumab-resistant RF24 cells; purified recombinant protein; variant of S76; dose not given here
T1 sequence (looked up, limits assumed): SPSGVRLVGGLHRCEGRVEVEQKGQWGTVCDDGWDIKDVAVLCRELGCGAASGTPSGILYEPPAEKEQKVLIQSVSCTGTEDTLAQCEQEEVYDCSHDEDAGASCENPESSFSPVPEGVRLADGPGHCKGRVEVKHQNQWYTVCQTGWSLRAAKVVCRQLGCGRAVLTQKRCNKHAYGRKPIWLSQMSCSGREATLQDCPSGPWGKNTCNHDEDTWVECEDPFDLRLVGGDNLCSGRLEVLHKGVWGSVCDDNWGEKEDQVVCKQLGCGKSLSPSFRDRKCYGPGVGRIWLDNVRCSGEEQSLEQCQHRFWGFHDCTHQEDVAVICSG

AGACAAGAAUAAACGCUCAAUUAUCGGAGAGGCCGAACAGAUACUUCGUUAGACACCUUGCAGCGUUCGACAGGAGGC [S11]
binding result [1]: binds more weakly

AGGUUGCAGCGUUCGACAGGAGGCUCACAACAG [S76.T]
functional effect of the aptamer [2]: active

AGACAAGAAUAAACGCUCAAAAAGAGAGAAGGAUAAGAACCAUCAAAAAGAGAGAGCAGAGCCAGAUUCGACAGGAGGCUCACAACAGGC [S23]
binding result [1]: binds more weakly

AGACAAGAAUAAACGCUCAAUUAUCGGAGAGGCCGAACAGAUACUUCGUUAGACAGGUUGCAGCGUUCGACAGGAGGCUCACAACAGGC [S76]
binding result [1]: binds more weakly

For some of these results: The comparison behind a weaker result is the experiment's own reference, which may not be listed here. For some of these results: Protein sequences can lack the tags named with them.
